From article PMC13170167, “Magnetosome organelles are organized through interactions between McaA and McaB that alter the dynamics of the bacterial actin-like protein MamK” (mBio, 2026)

Tests used:
Test in all cases: co-IP; GFP-Trap agarose beads on AMB-1 lysates (NP-40 lysis), 1 h at 4°C, washes in 10 mM Tris-HCl, 150 mM NaCl, pH 7.4; elutions probed by Western blot (anti-GFP, anti-Halotag, anti-Flag); strains ΔmcaAB, WT, ΔmcaA, ΔmamKΔmcaA, ΔmcaBΔmamK, ΔMAIΔMIS, ΔmamKΔmamK-like, Δmms6
[1] = target: McaB-GFP (Magnetospirillum magneticum AMB-1)
[2] = target: McaA-GFP (Magnetospirillum magneticum AMB-1)
[3] = target: McaAΔ530-GFP (Magnetospirillum magneticum AMB-1)

binding [1] | binding [2] | binding [3] | Binder
no binding | – | – | Mms6-Halo (protein, UniProt Q2W8R5 1-133) MGEMEREGAAAKAGAAKTGAAKTGTVAKTGIAAKTGVATAVAAPAAPANVAAAQGAGTKVALGAGKAAAGAKVVGGTIWTGKGLGLGLGLGLGAWGPIILGVVGAGAVYAYMKSRDIESAQSDEEVELRDALA
binds | binds | binds | MamK-Flag (protein, UniProt Q2W8Q6 1-347) MSEGEGQAKNRLFLGIDLGTSHTAVMSSRGKKFLLKSVVGYPKDVIGLKLLGRPYVVGDEAFEMRSYLDIRYPLQDGVLSEISDRDIEVARHLLTHVVKSAEPGPNDEICAVIGVPARASAANKALLLKMAQEVVHTALVVSEPFMVGYGLDKLINTIIVDIGAGTTDICALKGTVPGPEDQVTLTKAGNYVDERLQNAILERHPELQMNVNVACAVKEQFSFVGTPTEVASFEFRAAGKPVRADVTEPVKIACEALMPDIIESIETLLRSFQPEYQATVLQNIVFAGGGSRIRGLAAYVKEKLRPFGDANVTCVKDPTFDGCRGALRLAEELPPQYWRQLGDVSGS

Results are given in words; binding and its absence hold for the method and conditions named. Binding seen in cells or lysates may run through a third protein. A result given as binding can be weak or reduced; the word gives no strength. Sequences can lack the tags named with a protein.
